{"sequences": {"note": "By UniProt entry, the sequences of proteins in these tests, tags left out. Where a name states a change or a piece, a line headed by the entry shows the natural chain unless it says otherwise.", "UniProt O60462": "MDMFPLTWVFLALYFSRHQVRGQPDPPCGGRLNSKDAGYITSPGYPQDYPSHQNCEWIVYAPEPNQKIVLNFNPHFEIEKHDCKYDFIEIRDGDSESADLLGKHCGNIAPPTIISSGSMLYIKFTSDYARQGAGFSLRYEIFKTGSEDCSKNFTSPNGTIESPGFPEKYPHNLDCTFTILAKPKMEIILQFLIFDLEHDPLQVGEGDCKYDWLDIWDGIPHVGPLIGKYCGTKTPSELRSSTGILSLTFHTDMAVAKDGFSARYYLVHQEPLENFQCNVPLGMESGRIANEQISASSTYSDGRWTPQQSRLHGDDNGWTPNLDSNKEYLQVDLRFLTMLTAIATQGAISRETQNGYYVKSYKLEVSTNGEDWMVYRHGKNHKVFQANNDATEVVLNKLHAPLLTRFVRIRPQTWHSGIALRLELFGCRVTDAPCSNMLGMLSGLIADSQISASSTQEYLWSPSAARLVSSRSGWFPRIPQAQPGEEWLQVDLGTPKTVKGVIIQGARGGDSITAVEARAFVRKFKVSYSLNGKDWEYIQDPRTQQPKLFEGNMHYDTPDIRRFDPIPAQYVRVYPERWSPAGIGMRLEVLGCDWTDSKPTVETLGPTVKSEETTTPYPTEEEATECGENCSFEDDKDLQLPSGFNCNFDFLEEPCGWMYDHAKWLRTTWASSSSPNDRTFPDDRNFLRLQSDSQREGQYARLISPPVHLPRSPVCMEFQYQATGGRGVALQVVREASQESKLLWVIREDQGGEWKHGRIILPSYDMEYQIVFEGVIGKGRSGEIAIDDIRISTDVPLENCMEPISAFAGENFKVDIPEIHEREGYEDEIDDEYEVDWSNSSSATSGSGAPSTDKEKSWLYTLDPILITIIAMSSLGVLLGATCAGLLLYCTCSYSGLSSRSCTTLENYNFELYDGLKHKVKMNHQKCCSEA"}, "source": "paper PMC3568127", "target": "NRP2 b1 domain, His6-tag removed (UniProt O60462)", "assay": "SEC; preparative HiLoad 16/60 Superdex 75; 0.6 mM VEGF-A165-HBD with 0.06 mM NRP b1 (tenfold excess); 50 mM Tris pH 7.9, 100 mM NaCl; 30 minutes at room temperature; fractions of the single peak analysed by SDS-PAGE; both purified", "note": "No constants are given. Whether binding was seen depends on the method and setting. A result given as binding can be weak or reduced; the word gives no strength. Tags and fused reporters may be left off the sequences shown."}
{"binder": "PCGPCSERRKHLFVQDPQTCKCSCKNTDSRCKARQLELNERTCRCDKPRR (domain or fragment)", "note": "[VEGF-A165-HBD with the His6-tag removed]", "values": [{"measurement": "binding", "result": "binds"}]}
